PubChem BioAssay AID1487 (National Center for Advancing Translational Sciences (NCATS), 2009)
Several values for one entry are separate records, joined by “and”; a condition that tells them apart may be missing. Equal values may be shown once. The list shows a part of the results. These are further read-outs of the screen, such as a control signal, another cell line or another target. No call is given for them. Most of these compounds were active or inconclusive in the main read-out, so they are no random draw. Words in brackets tell the shape of the fitted curve; partial curves, single points and poor fits give uncertain potencies.

Experiment: qHTS Assay for Modulators of Lamin A Splicing
Details: HeLa LMNA splicing GFP/RFP minigene ratio, 48 h
Outline: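 S3 HeLa cells stably expressing lamin A-EGFP splicing minigene plus DsRed2, 600 cells/well, 48 h compound exposure at 37C. Laser-scanning cytometry; analysed as GFP (500-530 nm)/RFP (575-640 nm) total intensity ratio; 0.5% DMSO vehicle.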

[1] = measured here: GFP splicing reporter channel
[2] = measured here: RFP viability control channel

Row | SMILES | AC50 [1] | AC50 [2]
1 | Cc1nc2ccc(C(=O)Nc3cccc([N+](=O)[O-])c3)cc2s1 | 3.98 µM [falling, partial curve, poor fit] | 0.316 µM [falling, full curve, poor fit]
2 | COC(=O)c1ccc(CSc2nnc(-c3ccc4c(c3)OCO4)n2-c2ccccc2)o1 | – | 0.112 µM [rising, full curve, poor fit]
3 | Cc1cccc(-n2c(SCC(=O)N3CCCC3)nc3n[nH]c(C)c3c2=N)c1 | – | 11.2 µM [rising, single point]
4 | CS(=O)(=O)N(CC(=O)NCC1CCCO1)c1cccc(Cl)c1 (centres undefined) | 35.5 µM [rising, partial curve] | –
5 | O=C(CN(Cc1ccco1)C(=O)c1ccccc1)Nc1ccc(Cl)c(Cl)c1 | 10 µM [falling, single point] | 0.0282 µM [falling, partial curve]
6 | CCOC(=O)c1c(C)[nH]c(C=O)c1Cc1cccc(Cl)c1 | 11.2 µM [rising, single point] | 15.8 µM [rising, partial curve]
7 | COc1ccc(Cc2nc(C(=O)Nc3ccc(F)cc3)cs2)cc1 | – | 11.2 µM [rising, partial curve]
8 | CCOC(=O)c1[nH]c2ccccc2c1NC(=S)Nc1ccccc1C | – | 2.24 µM [rising, partial curve, poor fit]
9 | CCn1cc(CNC(=O)c2cc(Cl)ccc2OC)c(C)n1 | 20 µM [rising, partial curve, poor fit] | –
10 | CCOc1cc(/C=C\c2[nH]c(=O)[nH]c(=O)c2[N+](=O)[O-])ccc1OC(C)CC (centres undefined) | 25.1 µM [falling, single point] | –
11 | COC(=O)c1scc(-c2ccc(C)cc2)c1S(=O)(=O)Nc1c(C)cc(C)cc1C | – | 1.58 µM [rising, full curve, poor fit]
12 | CCC1Oc2ccccc2N(CC(=O)NCCCN2CCC(C)CC2)C1=O (centres undefined) | – | 14.1 µM [rising, single point]
13 | COc1cc2c(C(=O)N3CCN(c4ccccc4)CC3)c(C)oc2cc1Br | 22.4 µM [rising, single point] | 35.5 µM [rising, single point]
14 | CCOC(=O)c1c(C)[nH]c(N=Nc2ccc(C)cc2C)c1C | 35.5 µM [falling, single point] | 35.5 µM [falling, partial curve]
15 | COc1ccc(-n2c(C)cc(C(=O)Cn3nnc4ccccc4c3=O)c2C)cc1 | – | 22.4 µM [rising, partial curve, poor fit]
16 | O=C(/C=C/c1ccc(-c2ccccc2[N+](=O)[O-])o1)c1ccc(Br)cc1 | 14.1 µM [falling, partial curve] | –
17 | O=C(Nc1cccc(C(F)(F)F)c1)N(Cc1ccc(Cl)cc1)CC(O)C(F)(F)F (centres undefined) | 12.6 µM [falling, partial curve, poor fit] | 22.4 µM [falling, single point]
18 | CCc1ccccc1NC(=O)c1cc(S(=O)(=O)NC2CCCC2)ccc1F | 0.02 µM [rising, full curve, poor fit] | 0.0316 µM [rising, full curve, poor fit]
19 | Cc1cc(Cl)cc(Cl)c1OCCOc1cccc2cccnc12 | – | 28.2 µM [rising, single point]
20 | Cc1cccc(NC(=O)CSc2nc3c([nH]c4ccccc43)c(=O)n2-c2ccc(F)cc2)c1C | 35.5 µM [falling, single point] | 31.6 µM [falling, single point]
21 | Cc1cccc(OCC(=O)Nc2ccc3c(c2)N(C)C(=O)c2ccccc2S3)c1 | 1.12 µM [falling, partial curve] | 31.6 µM [rising, single point]
22 | O=C(Cc1cccs1)N1CCCC(c2nc(-c3ccc(S(=O)(=O)N4CCCC4)cc3)no2)C1 (centres undefined) | – | 14.1 µM [rising, single point]
23 | N#Cc1ccc(NC(=O)c2cc(-c3cccs3)on2)cc1 | – | 1.78 µM [rising, full curve, poor fit]
24 | COc1ccc(N2CCN(c3oc(-c4ccccc4OC)nc3C#N)CC2)cc1 | – | 11.2 µM [rising, single point]
25 | O=C(C1CCCN(S(=O)(=O)c2cccnc2)C1)N1CCN(c2ccccn2)CC1 (centres undefined) | – | 0.0112 µM [rising, full curve, poor fit]
26 | Cc1occc1C(=O)N1CCN(c2ccc(Cl)c(Cl)c2)CC1 | – | 22.4 µM [rising, single point]

Row | SMILES | AC50 [1] | AC50 [2]
27 | NC1=NC(=O)/C(=C\c2ccsc2)S1 | 35.5 µM [falling, single point] | –
28 | CCOc1cc(/C=N/NC(=O)CSc2cccc3cccnc23)ccc1O | 0.126 µM [falling, full curve, poor fit] | –
29 | CC1(C)CC(NC(=S)NCc2ccc3c(c2)OCO3)CC(C)(C)N1 | 0.891 µM [falling, full curve, poor fit] | –
30 | COc1ccc(Br)cc1CNC(=O)CN1C(=O)CSc2ccc(S(=O)(=O)N3CCOCC3)cc21 | – | 0.01 µM [falling, full curve, poor fit]
31 | Cc1ccc(NC(=O)c2cc3c(=O)n(Cc4cccnc4)ccc3nc2C)cc1F | 3.16 µM [falling, partial curve] | 3.98 µM [falling, partial curve, poor fit]
32 | O=C(CO/N=C\c1ccccc1)Nc1ccccc1C(=O)N1CCOCC1 | 14.1 µM [rising, partial curve] | 20 µM [rising, single point]
33 | Cc1ccc(-c2[nH]ncc2/C=N/n2c(COc3ccccc3C)nc3ccccc3c2=O)cc1 | – | 22.4 µM [rising, single point]
34 | Cc1cccc(C(=O)Nc2cccc(C(=O)OCc3cc(=O)n4ccsc4n3)c2)c1 | – | 0.00447 µM [falling, full curve, poor fit]
35 | O=C(NC(CC(=O)N1CCN(c2ccccc2)CC1)c1ccccc1)c1ccccc1Cl (centres undefined) | 17.8 µM [rising, single point] | 35.5 µM [rising, single point]
36 | CCN(CC)CCCN1C(=O)C(O)=C(C(=O)c2sc(C)nc2C)C1c1ccc(C)o1 (centres undefined) | 6.31 µM [rising, single point] | 5.62 µM [rising, single point]
37 | COc1ccc(CCNC(=O)C(=O)NCC2OCCN2S(=O)(=O)c2ccc(Br)cc2)cc1 (centres undefined) | 5.01 µM [rising, partial curve, poor fit] | 5.62 µM [rising, partial curve]
38 | CC(C)(C)NC(=O)NC(=O)CN1CCN(C(c2ccccc2)c2ccccc2)CC1 | – | 35.5 µM [rising, single point]
39 | COc1ccc(-c2csc3nc(C(C)(C)C)oc(=O)c23)cc1OC | 3.98 µM [falling, full curve] | 3.16 µM [falling, partial curve]
40 | Oc1cccc(/C=N/NC(=S)NCCN2CCOCC2)c1O | 35.5 µM [falling, single point] | 35.5 µM [falling, single point]
41 | O=C(Nc1ccc(F)cc1)c1cccc(N2C(=O)C3C4CCC(C4)C3C2=O)c1 (centres undefined) | 11.2 µM [rising, partial curve] | 14.1 µM [rising, partial curve]
42 | CC(C)(C)c1ccc2c(c1)OC(C(=O)N/N=C\c1ccccn1)CO2 (centres undefined) | 3.16 µM [rising, partial curve, poor fit] | 0.708 µM [rising, partial curve]
43 | O=C(COc1ccccc1)Nc1nc(-c2ccc(S(=O)(=O)N3CCOCC3)cc2)cs1 | 15.8 µM [rising, partial curve, poor fit] | 22.4 µM [rising, single point]
44 | COc1ccccc1N1CCN(CC(=O)Nc2ccc(Cl)c(C(F)(F)F)c2)CC1 | – | 35.5 µM [rising, single point]
45 | COC(=O)Cc1ccc(N(Cc2ccccc2F)S(=O)(=O)c2ccc(C)cc2)cc1 | – | 3.98 µM [falling, partial curve]
46 | CCN1CCN(c2cc(C)c3cc(NC(=S)N4CCC5(CC4)OCCO5)ccc3n2)CC1 | 1.26 µM [falling, partial curve, poor fit] | –
47 | NS(=O)(=O)c1cc2c(cc1Cl)NC=NS2(=O)=O | 3.55 µM [falling, single point] and 6.31 µM [falling, partial curve, poor fit] and 6.31 µM [falling, single point] | 0.891 µM [falling, partial curve, poor fit]
48 | O=C(Cn1ccc2ccccc2c1=O)NCCC(=O)N1CCN(c2cccc(C(F)(F)F)c2)CC1 | 14.1 µM [rising, single point] | 17.8 µM [rising, single point]
49 | O=C(CCNc1ccc(Cc2ccncc2)cc1)c1ccc([N+](=O)[O-])cc1 | 5.62 µM [falling, single point] | –
50 | Cc1cc(C)c(C(=O)OCCNC(=O)c2cccnc2)cc1C | 11.2 µM [rising, partial curve, poor fit] | 12.6 µM [rising, partial curve, poor fit]
51 | O=C(Nc1c(C(=O)Nc2cccc(F)c2)oc2ccccc12)c1ccc2c(c1)OCO2 | – | 17.8 µM [falling, single point]
52 | C[C@@H](C(=O)NCc1ccccc1)[C@H]1C[C@]1(C)[C@H](NC(=O)OCc1ccccc1)c1ccccc1 | – | 11.2 µM [rising, partial curve]

Ordered by formula weight (ascending): four of the compounds above
Row | SMILES | AC50 [1] | AC50 [2]
39 | COc1ccc(-c2csc3nc(C(C)(C)C)oc(=O)c23)cc1OC | 3.98 µM [falling, full curve] | 3.16 µM [falling, partial curve]
34 | Cc1cccc(C(=O)Nc2cccc(C(=O)OCc3cc(=O)n4ccsc4n3)c2)c1 | – | 0.00447 µM [falling, full curve, poor fit]
45 | COC(=O)Cc1ccc(N(Cc2ccccc2F)S(=O)(=O)c2ccc(C)cc2)cc1 | – | 3.98 µM [falling, partial curve]
52 | C[C@@H](C(=O)NCc1ccccc1)[C@H]1C[C@]1(C)[C@H](NC(=O)OCc1ccccc1)c1ccccc1 | – | 11.2 µM [rising, partial curve]
